These results are taken from the supplement of paper PMC4635364.

Counter-ions that a name gives are not always drawn. Some of the results follow. This data set is noisy: repeats of one test often differ as much as different tests do.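 ReNCell VM, a human fetal ventral-midbrain neural progenitor line, was differentiated without mitogens. Blinded raters scored images stained for doublecortin (early neurons) or tyrosine hydroxylase (dopaminergic neurons) against untreated wells (0 = no change). Scores were averaged across repeats and both raters, and compounds averaging 2 or more were selected as hits for retesting.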

Assay [1] has as its system ReNCell VM. The assay is described as follows: neuronal differentiation score (DCX+ cell fraction vs untreated, manual image score) (score (-3 to 3)); higher = more neuronal differentiation. Conditions: 2 uM, 2 weeks.
Assay [2] concerns ReNCell VM. Description: dopaminergic neuron differentiation score (TH+ cell fraction vs untreated, manual image score) (score (0 to 3)); higher = more TH+ dopaminergic neuron differentiation. Conditions: 2 uM, 4 weeks, BDNF 10 ng/ml + GDNF 10 ng/ml.

`CN1CCC[C@H]1c1cccnc1` [(-)-Nicotine hydrogen tartrate salt]: the neuronal differentiation score in the assay on ReNCell VM [1] (library: LOPAC) is inactive: 0. Besides, the “dopaminergic neuron differentiation score” value with ReNCell VM [2] (library: LOPAC) was inactive: 0.
In the case of `Oc1ccc2c(c1)OC[C@]1(O)Cc3cc(O)c(O)cc3[C@H]21`, in the assay with ReNCell VM [1] (library: Spectrum), the neuronal differentiation score was inactive: 0. The “dopaminergic neuron differentiation score” value in the assay with ReNCell VM [2] (library: Spectrum) was inactive: 0.
For `CN[C@@H]1[C@@H](O[C@H]2O[C@H](CO)[C@@H](N)[C@H](O)[C@H]2O)OC2C[C@@H](N)[C@@H](O[C@H]3[C@H](O)[C@@H](O)[C@H](N)C[C@@H]3N)OC2[C@@H]1O` (some centres not stated) [Apramycin], the neuronal differentiation score in the assay with ReNCell VM [1] (library: Prestwick) is inactive: 0. In addition, in the assay with ReNCell VM [2] (library: Prestwick), the “dopaminergic neuron differentiation score” value is inactive: 0.
Turning to `CC(C)=CCC/C(C)=C/CC/C(C)=C/CC/C(C)=C/CC/C(C)=C/CC/C(C)=C/CC/C(C)=C/CC/C(C)=C/CC/C(C)=C/CO`, the neuronal differentiation score with ReNCell VM [1] (library: Spectrum) is inactive: 0. Also, the “dopaminergic neuron differentiation score” value in the assay with ReNCell VM [2] (library: Spectrum) was inactive: 0.
As to `COC(=O)CCc1ccc(OCC(O)CNC(C)C)cc1` (configuration not stated) [Esmolol hydrochloride], the neuronal differentiation score with ReNCell VM [1] (library: Prestwick) is inactive: 0. In addition, the “dopaminergic neuron differentiation score” value in the assay on ReNCell VM [2] (library: Prestwick) is inactive: 0.
Consider `CCN(CC)CCOCCOC(=O)C1(c2ccccc2)CCCC1`, for which, in the assay with ReNCell VM [1] (library: Spectrum), the neuronal differentiation score is inactive: 0. For the same compound, the “dopaminergic neuron differentiation score” value with ReNCell VM [2] (library: Spectrum) was inactive: 0.
For the compound `CC(=N)NCCCC[C@H](N)C(=O)O` [L-NIL hydrochloride], in the assay with ReNCell VM [1] (library: Tocriscreen), the neuronal differentiation score is inactive: 0. Also, the “dopaminergic neuron differentiation score” value with ReNCell VM [2] (library: Tocriscreen) was inactive: 0.
With `O=c1[nH]c(=O)n([C@H]2C[C@H](O)[C@@H](CO)O2)cc1I` [Idoxuridine], in the assay on ReNCell VM [1] (library: Prestwick), the neuronal differentiation score was inactive: 0. Moreover, the “dopaminergic neuron differentiation score” value with ReNCell VM [2] (library: Prestwick) is inactive: 0.
Turning to `CN1C(=O)CC[C@H]1c1cccnc1` [(-)-Cotinine], the neuronal differentiation score in the assay with ReNCell VM [1] (library: LOPAC) was inactive: 0. In addition, the “dopaminergic neuron differentiation score” value with ReNCell VM [2] (library: LOPAC) is inactive: 0.
For `CC(C)=CCC/C(C)=C/CC/C(C)=C/CC/C(C)=C/CC/C(C)=C/CC1=C(C)C(=O)c2ccccc2C1=O` [Menaquinone], the neuronal differentiation score with ReNCell VM [1] (library: Phytochemical) is inactive: 0. The “dopaminergic neuron differentiation score” value in the assay on ReNCell VM [2] (library: Phytochemical) was inactive: 0.
`NC(=O)CNCCC(c1ccccc1)c1ccccc1` [N20C hydrochloride]: the neuronal differentiation score in the assay on ReNCell VM [1] (library: Tocriscreen) is inactive: 0. Moreover, in the assay on ReNCell VM [2] (library: Tocriscreen), the “dopaminergic neuron differentiation score” value is inactive: 0.
On to `NCc1ccc(S(N)(=O)=O)cc1`, for which, in the assay on ReNCell VM [1] (library: Spectrum), the neuronal differentiation score is inactive: 0. Besides, the “dopaminergic neuron differentiation score” value in the assay on ReNCell VM [2] (library: Spectrum) is inactive: 0.
As for `Cc1cc(O)c(C(=O)N[C@@H](C(=O)N[C@@H]2C(=O)N3C(C(=O)O)=C(CSc4nnnn4C)CS[C@H]23)c2ccc(O)cc2)cn1`, the neuronal differentiation score in the assay on ReNCell VM [1] (library: Spectrum) was inactive: 0. Also, the “dopaminergic neuron differentiation score” value with ReNCell VM [2] (library: Spectrum) was inactive: 0.
Regarding `Cc1c(C(=O)N(C)C2CCCCC2)sc2nc3ccc(N)cc3n12`, the neuronal differentiation score in the assay on ReNCell VM [1] (library: Tocriscreen) is inactive: 0. The “dopaminergic neuron differentiation score” value in the assay with ReNCell VM [2] (library: Tocriscreen) is inactive: 0.
Turning to `CN(C)CCC=C1c2ccccc2CCc2ccccc21` [Amitriptyline hydrochloride], the neuronal differentiation score with ReNCell VM [1] (library: LOPAC) is inactive: 0. In addition, in the assay with ReNCell VM [2] (library: LOPAC), the “dopaminergic neuron differentiation score” value was inactive: 0.
For `CC[C@@H]1SC2(CCN(C)CC2)NC1=O`, the neuronal differentiation score with ReNCell VM [1] (library: LOPAC) is inactive: 0. The “dopaminergic neuron differentiation score” value with ReNCell VM [2] (library: LOPAC) was inactive: 1.
For the compound `C/C=C(/C)C(=O)O[C@@H]1[C@H](OC(=O)[C@@]2(C)O[C@H]2C)c2cc3ccc(=O)oc3cc2OC1(C)C` [peuarenarine], the neuronal differentiation score in the assay on ReNCell VM [1] (library: Natural) was inactive: 0. In the assay on ReNCell VM [2] (library: Natural), the “dopaminergic neuron differentiation score” value was inactive: 0.
`C=C1CC=C(C)CC[C@@H]2[C@@H]1CC2(C)C`: the neuronal differentiation score with ReNCell VM [1] (library: Spectrum) was inactive: 0. Further, the “dopaminergic neuron differentiation score” value with ReNCell VM [2] (library: Spectrum) was inactive: 0.
For the compound `CC1=C(/C=C/C(C)=C/C=C/C(C)=C/C=C/C=C(C)/C=C/C=C(C)/C=C/C2=C(C)C(=O)[C@@H](O)CC2(C)C)C(C)(C)C[C@H](O)C1=O`, the neuronal differentiation score with ReNCell VM [1] (library: Spectrum) is inactive: 0. In the assay on ReNCell VM [2] (library: Spectrum), the “dopaminergic neuron differentiation score” value is inactive: 0.
On to `CN(C)CCCN1c2ccccc2Sc2ccc(Cl)cc21`, for which the neuronal differentiation score in the assay on ReNCell VM [1] (library: Spectrum) was inactive: 0. Moreover, the “dopaminergic neuron differentiation score” value with ReNCell VM [2] (library: Spectrum) was inactive: 0.
In the case of `CC(C)(CO)[C@@H](O)C(=O)NCCC(=O)NCCSSCCNC(=O)CCNC(=O)[C@H](O)C(C)(C)CO`, the neuronal differentiation score with ReNCell VM [1] (library: Spectrum) was inactive: 0. In the assay on ReNCell VM [2] (library: Spectrum), the “dopaminergic neuron differentiation score” value was inactive: 0.
On to `COc1ccc(-c2cc(=O)c3c(O)cc(OC)cc3o2)cc1`, for which the neuronal differentiation score in the assay with ReNCell VM [1] (library: Spectrum) was inactive: 0. The “dopaminergic neuron differentiation score” value in the assay with ReNCell VM [2] (library: Spectrum) was inactive: 0.
With `CCN(CC)CCNc1ccc(CO)c2sc3ccccc3c(=O)c12`, the neuronal differentiation score in the assay with ReNCell VM [1] (library: Spectrum) is inactive: 0. The “dopaminergic neuron differentiation score” value in the assay with ReNCell VM [2] (library: Spectrum) is inactive: 0.
Take `NS(=O)(=O)c1cc2c(cc1Cl)NC(C(Cl)Cl)NS2(=O)=O` (configuration not stated): the neuronal differentiation score in the assay on ReNCell VM [1] (library: Spectrum) is inactive: 0. Further, in the assay on ReNCell VM [2] (library: Spectrum), the “dopaminergic neuron differentiation score” value was inactive: 0.
On to `N=C(N=C(N)N)N1CCOCC1` [Moroxidine hydrochloride], for which, in the assay on ReNCell VM [1] (library: Prestwick), the neuronal differentiation score was inactive: 0. Also, in the assay with ReNCell VM [2] (library: Prestwick), the “dopaminergic neuron differentiation score” value is inactive: 0.
`Cc1cc(N)c2ccccc2[n+]1CCCCCCCCCC[n+]1c(C)cc(N)c2ccccc21` [Dequalinium chloride hydrate]: in the assay with ReNCell VM [1] (library: LOPAC), the neuronal differentiation score was inactive: 0. Besides, in the assay with ReNCell VM [2] (library: LOPAC), the “dopaminergic neuron differentiation score” value is inactive: 0.
Turning to `COc1c2c(nc3ccccc13)OC(C(C)(O)CO)C2` (configuration not stated) [dubinidine], the neuronal differentiation score in the assay with ReNCell VM [1] (library: Natural) was inactive: 1. In the assay on ReNCell VM [2] (library: Natural), the “dopaminergic neuron differentiation score” value was inactive: 0.
Consider `CO[C@H]1/C=C/O[C@@]2(C)Oc3c(C)c(O)c4c(c3C2=O)C2=NC3(CCN(CC(C)C)CC3)NC2=C(NC(=O)/C(C)=C\C=C\[C@H](C)[C@H](O)[C@@H](C)[C@@H](O)[C@@H](C)[C@H](OC(C)=O)[C@@H]1C)C4=O` [Rifabutin], for which the neuronal differentiation score in the assay on ReNCell VM [1] (library: Prestwick) was inactive: 0. Further, in the assay on ReNCell VM [2] (library: Prestwick), the “dopaminergic neuron differentiation score” value was inactive: 0.
With `Oc1ccc(OCc2ccccc2)cc1` [Monobenzone], in the assay on ReNCell VM [1] (library: Prestwick), the neuronal differentiation score was inactive: 0. Further, in the assay with ReNCell VM [2] (library: Prestwick), the “dopaminergic neuron differentiation score” value is inactive: 0.
As for `CN(C)CCCC1(c2ccc(F)cc2)OCc2cc(C#N)ccc21` (configuration not stated) [Citalopram Hydrobromide], the neuronal differentiation score in the assay with ReNCell VM [1] (library: Prestwick) is inactive: 0. Besides, the “dopaminergic neuron differentiation score” value in the assay with ReNCell VM [2] (library: Prestwick) was inactive: 0.
With `N=C(N)NCC1COC2(CCCCC2)O1` (configuration not stated) [Guanadrel sulfate], in the assay on ReNCell VM [1] (library: Prestwick), the neuronal differentiation score was inactive: 0. For the same compound, the “dopaminergic neuron differentiation score” value in the assay on ReNCell VM [2] (library: Prestwick) was inactive: 0.
